# Data from paper doi:10.1101/2024.03.29.587195 (bioRxiv, 2024).
# By UniProt entry, the sequences of proteins in these tests, tags left out.
# UniProt P9WNU7, whole entry: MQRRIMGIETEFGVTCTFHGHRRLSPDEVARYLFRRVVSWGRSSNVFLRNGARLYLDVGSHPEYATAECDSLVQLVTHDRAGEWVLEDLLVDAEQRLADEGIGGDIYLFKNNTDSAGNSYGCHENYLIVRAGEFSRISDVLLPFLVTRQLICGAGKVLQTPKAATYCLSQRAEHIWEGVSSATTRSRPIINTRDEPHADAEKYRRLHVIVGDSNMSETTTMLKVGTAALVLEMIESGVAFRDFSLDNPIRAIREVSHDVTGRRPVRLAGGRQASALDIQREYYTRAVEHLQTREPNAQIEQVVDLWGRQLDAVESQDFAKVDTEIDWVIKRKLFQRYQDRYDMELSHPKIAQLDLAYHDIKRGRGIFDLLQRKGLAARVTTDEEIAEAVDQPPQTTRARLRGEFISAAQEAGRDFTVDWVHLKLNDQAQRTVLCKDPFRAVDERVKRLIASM
# Results are given in words; binding and its absence hold for the method and conditions named. Binding seen in cells or lysates may run through a third protein. These calls come from enrichment with a bait or labelling near it, and not all partners need be listed. A no says only that the protein was not detected with the bait.
# Molecular target: PafATAP (carboxyl-terminally epitope-tagged proteasome accessory factor A) (Mycobacterium tuberculosis) (UniProt P9WNU7)
# Test: affinity purification with mass spectrometry
binder,measurement,value
"CoaXMtb, untagged, recombinant (cryo-EM sample) (natural protein) MLLAIDVRNTHTVVGLLSGMKEHAKVVQQWRIRTESEVTADELALTIDGLIGEDSERLTGTAALSTVPSVLHEVRIMLDQYWPSVPHVLIEPGVRTGIPLLVDNPKEVGADRIVNCLAAYDRFRKAAIVVDFGSSICVDVVSAKGEFLGGAIAPGVQVSSDAAAARSAALRRVELARPRSVVGKNTVECMQAGAVFGFAGLVDGLVGRIREDVSGFSVDHDVAIVATGHTAPLLLPELHTVDHYDQHLTLQGLRLVFERNLEVQRGRLKTAR",binding,no binding
